The supplement of paper PMC12067093, “Discovery and optimisation of a covalent ligand for TRIM25 and its application to targeted protein ubiquitination” (Chemical Science, 2025)
This is one part of the list.

Amino acid sequences for entries named in this document (tags omitted). A change or cut given only in a name is not applied to a line headed by its entry.
UniProt O94874: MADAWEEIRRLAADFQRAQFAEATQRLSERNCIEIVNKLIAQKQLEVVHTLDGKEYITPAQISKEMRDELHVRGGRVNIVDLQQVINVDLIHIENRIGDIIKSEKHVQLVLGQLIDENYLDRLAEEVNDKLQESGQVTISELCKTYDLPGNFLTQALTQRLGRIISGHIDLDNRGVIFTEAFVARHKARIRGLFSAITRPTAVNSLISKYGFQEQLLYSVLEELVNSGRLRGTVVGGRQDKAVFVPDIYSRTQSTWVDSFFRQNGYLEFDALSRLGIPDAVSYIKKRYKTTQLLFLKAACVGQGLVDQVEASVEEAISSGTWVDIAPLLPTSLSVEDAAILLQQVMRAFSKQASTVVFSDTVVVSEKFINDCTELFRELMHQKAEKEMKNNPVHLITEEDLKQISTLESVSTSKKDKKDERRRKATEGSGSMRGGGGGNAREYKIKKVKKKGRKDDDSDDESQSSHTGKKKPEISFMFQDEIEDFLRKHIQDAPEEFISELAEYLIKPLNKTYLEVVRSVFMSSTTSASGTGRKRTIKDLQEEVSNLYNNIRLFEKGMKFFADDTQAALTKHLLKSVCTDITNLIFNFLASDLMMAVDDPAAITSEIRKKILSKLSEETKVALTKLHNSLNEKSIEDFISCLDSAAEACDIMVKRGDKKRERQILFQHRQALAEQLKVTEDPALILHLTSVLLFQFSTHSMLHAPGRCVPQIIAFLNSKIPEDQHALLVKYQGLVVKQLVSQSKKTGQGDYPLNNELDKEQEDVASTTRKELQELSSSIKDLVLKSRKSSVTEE
UniProt Q92900: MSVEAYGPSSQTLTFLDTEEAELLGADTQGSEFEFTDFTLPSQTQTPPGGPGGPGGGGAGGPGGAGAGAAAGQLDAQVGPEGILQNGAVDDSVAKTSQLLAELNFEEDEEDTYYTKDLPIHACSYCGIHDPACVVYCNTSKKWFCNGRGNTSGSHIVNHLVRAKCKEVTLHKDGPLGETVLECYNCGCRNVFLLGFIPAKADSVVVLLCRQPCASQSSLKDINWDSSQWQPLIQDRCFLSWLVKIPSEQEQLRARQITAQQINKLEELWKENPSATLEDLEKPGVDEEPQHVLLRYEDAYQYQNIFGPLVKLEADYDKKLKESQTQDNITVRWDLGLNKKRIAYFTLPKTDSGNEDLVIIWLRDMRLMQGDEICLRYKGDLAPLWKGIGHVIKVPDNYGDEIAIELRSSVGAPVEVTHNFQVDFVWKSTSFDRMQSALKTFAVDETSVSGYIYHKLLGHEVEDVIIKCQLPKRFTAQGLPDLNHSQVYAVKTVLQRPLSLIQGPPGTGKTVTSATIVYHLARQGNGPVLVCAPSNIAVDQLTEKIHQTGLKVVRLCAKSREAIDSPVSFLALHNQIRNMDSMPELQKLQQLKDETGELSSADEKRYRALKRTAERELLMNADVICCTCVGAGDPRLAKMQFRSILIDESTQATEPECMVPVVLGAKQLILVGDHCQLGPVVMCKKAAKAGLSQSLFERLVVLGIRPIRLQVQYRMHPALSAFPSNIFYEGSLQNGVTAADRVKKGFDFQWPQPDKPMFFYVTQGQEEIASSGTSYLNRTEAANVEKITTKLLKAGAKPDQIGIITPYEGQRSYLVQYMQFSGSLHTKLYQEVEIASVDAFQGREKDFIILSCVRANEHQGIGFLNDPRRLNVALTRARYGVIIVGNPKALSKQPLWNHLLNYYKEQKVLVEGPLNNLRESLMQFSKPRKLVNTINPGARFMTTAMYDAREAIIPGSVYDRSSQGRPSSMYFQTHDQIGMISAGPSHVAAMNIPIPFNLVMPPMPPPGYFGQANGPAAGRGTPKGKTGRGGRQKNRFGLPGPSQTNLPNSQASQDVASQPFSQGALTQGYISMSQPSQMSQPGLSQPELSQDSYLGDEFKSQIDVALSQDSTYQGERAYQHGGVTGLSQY
UniProt Q9HAU5: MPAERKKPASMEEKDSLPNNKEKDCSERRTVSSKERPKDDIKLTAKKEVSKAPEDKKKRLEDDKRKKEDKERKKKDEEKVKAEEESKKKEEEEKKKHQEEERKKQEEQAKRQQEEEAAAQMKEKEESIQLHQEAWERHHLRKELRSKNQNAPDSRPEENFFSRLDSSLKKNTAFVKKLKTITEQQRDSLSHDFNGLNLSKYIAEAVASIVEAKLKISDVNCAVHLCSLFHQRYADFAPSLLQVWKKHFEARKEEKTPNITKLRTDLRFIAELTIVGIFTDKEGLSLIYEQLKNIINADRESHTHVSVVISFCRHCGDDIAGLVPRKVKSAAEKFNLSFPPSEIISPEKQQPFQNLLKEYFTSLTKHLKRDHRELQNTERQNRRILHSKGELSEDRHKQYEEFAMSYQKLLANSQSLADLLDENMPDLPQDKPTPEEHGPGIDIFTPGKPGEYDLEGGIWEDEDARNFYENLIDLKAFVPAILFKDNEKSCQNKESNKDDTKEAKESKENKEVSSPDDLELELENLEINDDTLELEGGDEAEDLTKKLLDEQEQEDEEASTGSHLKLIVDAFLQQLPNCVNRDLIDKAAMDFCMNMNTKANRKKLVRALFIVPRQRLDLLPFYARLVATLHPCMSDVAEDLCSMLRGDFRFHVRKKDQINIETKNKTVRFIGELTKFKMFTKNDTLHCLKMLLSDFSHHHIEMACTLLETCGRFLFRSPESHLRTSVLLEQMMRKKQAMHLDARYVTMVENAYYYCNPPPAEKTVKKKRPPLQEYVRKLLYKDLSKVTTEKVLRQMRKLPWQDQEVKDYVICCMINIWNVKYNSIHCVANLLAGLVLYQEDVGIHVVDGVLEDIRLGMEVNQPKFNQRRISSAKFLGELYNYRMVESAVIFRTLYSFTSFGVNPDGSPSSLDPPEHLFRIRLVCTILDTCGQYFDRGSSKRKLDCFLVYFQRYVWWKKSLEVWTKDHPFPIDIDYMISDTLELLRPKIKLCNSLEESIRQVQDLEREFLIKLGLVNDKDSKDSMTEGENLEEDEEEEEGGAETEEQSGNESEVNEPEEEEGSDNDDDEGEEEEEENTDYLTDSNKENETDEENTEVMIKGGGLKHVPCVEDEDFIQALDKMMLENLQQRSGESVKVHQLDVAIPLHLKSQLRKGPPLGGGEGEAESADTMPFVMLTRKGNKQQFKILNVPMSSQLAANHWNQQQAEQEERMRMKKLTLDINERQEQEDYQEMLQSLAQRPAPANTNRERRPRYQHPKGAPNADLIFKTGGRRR
UniProt Q96K76: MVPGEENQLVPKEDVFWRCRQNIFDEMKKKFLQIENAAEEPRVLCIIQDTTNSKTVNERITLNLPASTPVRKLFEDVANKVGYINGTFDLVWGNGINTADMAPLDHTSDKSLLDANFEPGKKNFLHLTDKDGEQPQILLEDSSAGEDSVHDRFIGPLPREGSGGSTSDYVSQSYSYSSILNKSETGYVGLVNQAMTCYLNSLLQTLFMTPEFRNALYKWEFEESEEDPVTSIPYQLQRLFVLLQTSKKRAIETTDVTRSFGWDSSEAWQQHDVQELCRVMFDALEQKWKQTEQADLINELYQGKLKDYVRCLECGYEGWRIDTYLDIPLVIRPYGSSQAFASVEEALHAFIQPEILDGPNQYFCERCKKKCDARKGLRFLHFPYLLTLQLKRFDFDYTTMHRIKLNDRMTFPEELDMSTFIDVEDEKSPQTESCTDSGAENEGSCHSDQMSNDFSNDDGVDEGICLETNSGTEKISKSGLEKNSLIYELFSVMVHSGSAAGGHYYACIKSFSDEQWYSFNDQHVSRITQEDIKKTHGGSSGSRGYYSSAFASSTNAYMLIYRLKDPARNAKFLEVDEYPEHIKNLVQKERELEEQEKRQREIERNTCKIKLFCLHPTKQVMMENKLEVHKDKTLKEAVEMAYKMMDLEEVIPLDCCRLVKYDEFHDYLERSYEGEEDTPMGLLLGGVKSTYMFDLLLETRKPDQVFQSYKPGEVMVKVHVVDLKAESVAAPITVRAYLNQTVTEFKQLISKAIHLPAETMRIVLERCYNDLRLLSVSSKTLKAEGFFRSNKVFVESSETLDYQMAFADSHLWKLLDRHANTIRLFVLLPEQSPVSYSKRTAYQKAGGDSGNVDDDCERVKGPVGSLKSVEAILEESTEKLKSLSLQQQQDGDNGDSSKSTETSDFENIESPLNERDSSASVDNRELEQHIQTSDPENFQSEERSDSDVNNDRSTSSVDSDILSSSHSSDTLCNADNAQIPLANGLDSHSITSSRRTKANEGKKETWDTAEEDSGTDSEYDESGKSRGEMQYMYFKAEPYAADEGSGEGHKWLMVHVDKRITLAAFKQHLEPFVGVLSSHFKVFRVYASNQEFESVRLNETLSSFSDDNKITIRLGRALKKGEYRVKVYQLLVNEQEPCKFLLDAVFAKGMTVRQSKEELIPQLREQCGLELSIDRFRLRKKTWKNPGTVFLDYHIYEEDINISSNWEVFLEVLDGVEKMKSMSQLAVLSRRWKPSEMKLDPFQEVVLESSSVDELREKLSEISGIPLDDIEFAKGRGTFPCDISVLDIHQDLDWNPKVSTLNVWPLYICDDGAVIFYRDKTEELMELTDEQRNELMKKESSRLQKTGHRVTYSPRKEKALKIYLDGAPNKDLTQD
UniProt Q9UHP3: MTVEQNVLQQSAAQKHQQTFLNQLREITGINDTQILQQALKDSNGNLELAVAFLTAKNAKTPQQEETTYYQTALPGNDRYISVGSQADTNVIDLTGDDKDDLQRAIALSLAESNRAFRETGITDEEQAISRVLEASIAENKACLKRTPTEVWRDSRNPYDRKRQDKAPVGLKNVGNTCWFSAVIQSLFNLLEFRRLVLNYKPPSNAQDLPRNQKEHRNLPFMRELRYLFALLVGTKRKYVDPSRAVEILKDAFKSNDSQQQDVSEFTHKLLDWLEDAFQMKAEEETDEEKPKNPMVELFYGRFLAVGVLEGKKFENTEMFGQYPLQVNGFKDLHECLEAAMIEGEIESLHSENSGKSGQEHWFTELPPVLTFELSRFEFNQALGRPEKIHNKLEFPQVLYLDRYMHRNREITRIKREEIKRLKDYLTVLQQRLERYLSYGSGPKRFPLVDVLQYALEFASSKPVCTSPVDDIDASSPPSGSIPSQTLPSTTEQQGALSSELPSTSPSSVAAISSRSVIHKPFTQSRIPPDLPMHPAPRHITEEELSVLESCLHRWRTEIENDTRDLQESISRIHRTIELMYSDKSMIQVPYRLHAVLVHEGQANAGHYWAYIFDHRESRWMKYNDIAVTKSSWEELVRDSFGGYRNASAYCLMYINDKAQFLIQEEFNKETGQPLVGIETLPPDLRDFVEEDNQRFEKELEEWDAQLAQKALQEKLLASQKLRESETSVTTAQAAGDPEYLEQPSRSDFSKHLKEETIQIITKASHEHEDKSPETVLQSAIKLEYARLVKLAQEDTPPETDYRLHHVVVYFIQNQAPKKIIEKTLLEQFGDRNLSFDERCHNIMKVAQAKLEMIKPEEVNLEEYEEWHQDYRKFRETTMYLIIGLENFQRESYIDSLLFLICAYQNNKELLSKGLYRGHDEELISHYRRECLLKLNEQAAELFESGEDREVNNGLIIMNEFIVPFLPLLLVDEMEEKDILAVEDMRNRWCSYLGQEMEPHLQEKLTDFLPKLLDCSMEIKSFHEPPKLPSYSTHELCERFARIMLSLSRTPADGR

compound: Cc1cc(ccc1-c1ccccc1)C(=O)N1CCCN(CC1)C(=O)CCl [compound 10]; assay: probe-labelled cysteine peptide fold change vs DMSO (competition) (log2 fold change); higher = less target engagement (more negative = stronger competition); settings: 10 µM; THP-1; incubation time: 4 h
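Also: competitive profiling in live THP-1 cells: cysteine peptides tagged with an iodoacetamide desthiobiotin (IA-DTB) probe, intensity after compound treatment relative to DMSO-treated cells.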

Target | probe-labelled cysteine peptide fold change
UNC13D_Q70J99_255_CREDQWYPLEPR (UniProt Q70J99) | -0.287
UFL1_O94874_649_SIEDFISCLDSAAEACDIMVK (UniProt O94874) | 0.171
USP19_O94966_659_LVCPVCAK (UniProt O94966) | 0.0332
USP48_Q86UV5_512+514_WLDESTPTKPIDNHACLCSHDK (UniProt Q86UV5) | -0.0825
USP48_Q86UV5_80_GNPNCLVGIGEHIWLGEIDENSFHNIDDPNCER (UniProt Q86UV5) | -0.35
URGCP_Q8TCY9_292_QWDCFWHR (UniProt Q8TCY9) | 0.0356
USP14_P54578_277_ENQLQLSCFINQEVK (UniProt P54578) | -0.0297
USP7_Q93009_223_NQGATCYMNSLLQTLFFTNQLR (UniProt Q93009) | -0.101
UPF1_Q92900_852_DFIILSCVR (UniProt Q92900) | 0.0911
USP16_Q9Y5T5_631_EVFNTDECSIQHCLYQFTR (UniProt Q9Y5T5) | -0.104
UGGT1_Q9NYU2_159_TCESDTLEALLLTASERPK (UniProt Q9NYU2) | 0.0351
UGDH_O60701_20+27_ICCIGAGYVGGPTCSVIAHMCPEIR (UniProt O60701) | 0.00687
UBXN1_Q04323_214_EYDQCR (UniProt Q04323) | 0.15
USP20_Q9Y2K6_8_DLCPHLDSIGEVTKEDLLLK (UniProt Q9Y2K6) | -0.158
UGGT1_Q9NYU2_159_KTCESDTLEALLLTASERPKPLLFK (UniProt Q9NYU2) | -0.163
USP38_Q8NB14_38_VVESAEHWLDEAQCEAMFDLTTR (UniProt Q8NB14) | -0.318
USP4_Q13107_500_VMEVFLVPADPHCRPTQYR (UniProt Q13107) | 0.0133
UNC13D_Q70J99_276_TETYPDRGQCHLQFQLIHK (UniProt Q70J99) | 0.0212
USP39_Q53GS9_139_LCSISLSHINAYACLVCGK (UniProt Q53GS9) | -0.0316

Target | probe-labelled cysteine peptide fold change
ULK3_Q6PHR2_186_GSPLYMAPEMVCQR (UniProt Q6PHR2) | -0.31
UBR7_Q8N806_424_VDGMQYYCS (UniProt Q8N806) | -0.00109
USP8_P40818_809_NCYQDDINR (UniProt P40818) | -0.199
UPF2_Q9HAU5_687_NDTLHCLK (UniProt Q9HAU5) | 0.0284
USP24_Q9UPU5_802_TFFENVNLCDHR (UniProt Q9UPU5) | -0.223
USP16_Q9Y5T5_24_TVPIDDSSETLEPVCR (UniProt Q9Y5T5) | -0.224
UHRF1BP1L_A0JNW5_398_NGWANELLHEFECNVEMLK (UniProt A0JNW5) | -0.0203
USP4_Q13107_500_DRVMEVFLVPADPHCRPTQYR (UniProt Q13107) | 0.0259
USP8_P40818_939_STVQCLTCHKK (UniProt P40818) | -0.232
UBXN4_Q92575_186_SDTATGGESAGHATSSQEPSGCSDQRPAEDLNIR (UniProt Q92575) | -0.176
USP4_Q13107_624_LTLESLYQAVCDR (UniProt Q13107) | 0.118
UBTF_P17480_33_GQDRWSQEDMLTLLECMK (UniProt P17480) | -0.0572
UPF2_Q9HAU5_578_LIVDAFLQQLPNCVNR (UniProt Q9HAU5) | -0.0297
USP7_Q93009_702+711_SLNYCGHIYTPISCK (UniProt Q93009) | 0.000646
USP15_Q9Y4E8_570_DDIYVFEININRTEDTEHVIIPVCLR (UniProt Q9Y4E8) | 0.182
USP47_Q96K76_1309_VSTLNVWPLYICDDGAVIFYR (UniProt Q96K76) | 0.315
USP25_Q9UHP3_551_HITEEELSVLESCLHR (UniProt Q9UHP3) | 0.253
UBXN6_Q9BZV1_210_INCLEGTHEFFEAIGFQK (UniProt Q9BZV1) | -0.124
UPF1_Q92900_531_QGNGPVLVCAPSNIAVDQLTEK (UniProt Q92900) | 0.158

same assay, conditions: 50 µM; THP-1; incubation time: 4 h

Target | probe-labelled cysteine peptide fold change
UNC13D_Q70J99_255_CREDQWYPLEPR (UniProt Q70J99) | -0.465
UFL1_O94874_649_SIEDFISCLDSAAEACDIMVK (UniProt O94874) | 0.0481
USP19_O94966_659_LVCPVCAK (UniProt O94966) | -0.204
USP48_Q86UV5_512+514_WLDESTPTKPIDNHACLCSHDK (UniProt Q86UV5) | -1.16
USP48_Q86UV5_80_GNPNCLVGIGEHIWLGEIDENSFHNIDDPNCER (UniProt Q86UV5) | -0.503
URGCP_Q8TCY9_292_QWDCFWHR (UniProt Q8TCY9) | -0.0205
USP14_P54578_277_ENQLQLSCFINQEVK (UniProt P54578) | -0.0631
USP7_Q93009_223_NQGATCYMNSLLQTLFFTNQLR (UniProt Q93009) | -0.402
UPF1_Q92900_852_DFIILSCVR (UniProt Q92900) | 0.259
USP16_Q9Y5T5_631_EVFNTDECSIQHCLYQFTR (UniProt Q9Y5T5) | -0.264
UGGT1_Q9NYU2_159_TCESDTLEALLLTASERPK (UniProt Q9NYU2) | 0.301
UGDH_O60701_20+27_ICCIGAGYVGGPTCSVIAHMCPEIR (UniProt O60701) | -0.0364
UBXN1_Q04323_214_EYDQCR (UniProt Q04323) | 0.122
USP20_Q9Y2K6_8_DLCPHLDSIGEVTKEDLLLK (UniProt Q9Y2K6) | -0.521
UGGT1_Q9NYU2_159_KTCESDTLEALLLTASERPKPLLFK (UniProt Q9NYU2) | -0.696
USP38_Q8NB14_38_VVESAEHWLDEAQCEAMFDLTTR (UniProt Q8NB14) | -0.215
USP4_Q13107_500_VMEVFLVPADPHCRPTQYR (UniProt Q13107) | 0.124
UNC13D_Q70J99_276_TETYPDRGQCHLQFQLIHK (UniProt Q70J99) | -0.344
USP39_Q53GS9_139_LCSISLSHINAYACLVCGK (UniProt Q53GS9) | 0.117

Target | probe-labelled cysteine peptide fold change
ULK3_Q6PHR2_186_GSPLYMAPEMVCQR (UniProt Q6PHR2) | -0.114
UBR7_Q8N806_424_VDGMQYYCS (UniProt Q8N806) | -0.295
USP8_P40818_809_NCYQDDINR (UniProt P40818) | -1.27
UPF2_Q9HAU5_687_NDTLHCLK (UniProt Q9HAU5) | 0.11
USP24_Q9UPU5_802_TFFENVNLCDHR (UniProt Q9UPU5) | 0.0212
USP16_Q9Y5T5_24_TVPIDDSSETLEPVCR (UniProt Q9Y5T5) | -0.204
UHRF1BP1L_A0JNW5_398_NGWANELLHEFECNVEMLK (UniProt A0JNW5) | -0.158
USP4_Q13107_500_DRVMEVFLVPADPHCRPTQYR (UniProt Q13107) | -0.0407
USP8_P40818_939_STVQCLTCHKK (UniProt P40818) | -0.515
UBXN4_Q92575_186_SDTATGGESAGHATSSQEPSGCSDQRPAEDLNIR (UniProt Q92575) | -0.295
USP4_Q13107_624_LTLESLYQAVCDR (UniProt Q13107) | -0.183
UBTF_P17480_33_GQDRWSQEDMLTLLECMK (UniProt P17480) | -0.768
UPF2_Q9HAU5_578_LIVDAFLQQLPNCVNR (UniProt Q9HAU5) | -0.14
USP7_Q93009_702+711_SLNYCGHIYTPISCK (UniProt Q93009) | -0.0787
USP15_Q9Y4E8_570_DDIYVFEININRTEDTEHVIIPVCLR (UniProt Q9Y4E8) | 0.224
USP47_Q96K76_1309_VSTLNVWPLYICDDGAVIFYR (UniProt Q96K76) | -0.0757
USP25_Q9UHP3_551_HITEEELSVLESCLHR (UniProt Q9UHP3) | 0.479
UBXN6_Q9BZV1_210_INCLEGTHEFFEAIGFQK (UniProt Q9BZV1) | -0.192
UPF1_Q92900_531_QGNGPVLVCAPSNIAVDQLTEK (UniProt Q92900) | 0.112
